In publication PMC11718236:

What was measured:
Assay in all cases: fluorescence anisotropy
[1] = biological target: Rho (transcription termination factor ρ, wt) (Escherichia coli) (UniProt P0AG30); conditions: 20 mM HEPES pH 7.5, 150 mM KCl, 5% glycerol, 5 mM MgCl2, 0.5 mM TCEP, SBS assays with 10 uM unlabeled dC15 and 2 mM ADP-BeF3, probe 5 uM dC15-FAM or 2 uM rU12-FAM, recombinant protein, residues 1-419
[2] = biological target: Rho P167L (Escherichia coli) (UniProt P0AG30); conditions: 20 mM HEPES pH 7.5, 150 mM KCl, 5% glycerol, 5 mM MgCl2, 0.5 mM TCEP, SBS assays with 10 uM unlabeled dC15 and 2 mM ADP-BeF3, probe 5 uM dC15-FAM or 2 uM rU12-FAM, recombinant protein, residues 1-419
[3] = test system: Rho P167L + Psu (polarity suppression protein); conditions: SBS, IC50 of Psu added before RNA, dC15-blocked PBS, 2 mM ADP-BeF3; 20 mM HEPES pH 7.5, 150 mM KCl, 5% glycerol, 5 mM MgCl2, 0.5 mM TCEP; SBS assays with 10 uM unlabeled dC15 and 2 mM ADP-BeF3; probe 5 uM dC15-FAM or 2 uM rU12-FAM; recombinant protein
[4] = SBS binding, PBS blocked with 10 uM unlabeled dC15, 2 mM ADP-BeF3, panel assignment from figure text order

Row | Sequence | Kd ([1]; PBS binding, 5 mM Mg2+, panel assignment from figure text order (other PBS value 0.7), single-stranded DNA) [µM] | Kd ([2]; PBS binding, 5 mM Mg2+, panel assignment from figure text order (other PBS value 1.1), single-stranded DNA) [µM] | Kd [1, 4] [µM] | Kd [2, 4] [µM] | IC50 [3] [µM]
1 | CCCCCCCCCCCCCCC [dC15-FAM] | 1.1 | 0.7 |  |  | 
2 | UUUUUUUUUUUU [rU12-FAM] |  |  | 1.2 | 1.5 | 2.8

For at least one entry, the source does not settle the construct or the ends of the probe.
